Measurements: article PMC8627510
These are yes or no findings as the source states them, for the method shown. Binding seen in cells or lysates may run through a third protein. Some results given as binding are weak or reduced against the parent protein; the word gives no strength. Where a sequence is shown, tags or fusion partners need not be part of it. Values belong to the binder of their own block, whether it stands above or below them.

Experiments:
[1] = biological target: T1, Myc-tagged TAK1 (transforming growth factor β-activated kinase 1) (UniProt Q62073); assay: co-IP; HEK293T co-transfected with Myc-tagged TAK1 and Flag-tagged USP8; whole cell lysate in 20 mM Tris HCl pH 8, 137 mM NaCl, 1% Nonidet P-40, 2 mM EDTA; anti-Myc or anti-Flag antibody or rabbit IgG, protein A Sepharose, 4 °C; western blot
T1 sequence: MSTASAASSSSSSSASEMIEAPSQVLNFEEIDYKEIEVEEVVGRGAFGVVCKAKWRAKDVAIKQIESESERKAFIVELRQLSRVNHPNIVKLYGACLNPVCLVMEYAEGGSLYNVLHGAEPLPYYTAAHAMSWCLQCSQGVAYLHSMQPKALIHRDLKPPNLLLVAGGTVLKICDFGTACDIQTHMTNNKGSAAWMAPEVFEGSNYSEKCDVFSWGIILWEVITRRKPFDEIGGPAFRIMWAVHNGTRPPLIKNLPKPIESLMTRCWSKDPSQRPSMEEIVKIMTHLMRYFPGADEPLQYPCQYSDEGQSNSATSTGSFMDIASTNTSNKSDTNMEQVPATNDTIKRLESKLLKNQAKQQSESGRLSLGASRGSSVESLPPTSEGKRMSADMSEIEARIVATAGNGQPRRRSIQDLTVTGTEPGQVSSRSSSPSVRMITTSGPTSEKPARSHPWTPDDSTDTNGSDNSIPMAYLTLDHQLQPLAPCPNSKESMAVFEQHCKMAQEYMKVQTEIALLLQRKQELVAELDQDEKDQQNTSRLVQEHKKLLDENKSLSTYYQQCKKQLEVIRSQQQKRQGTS

[2] = biological target: T1, Myc-tagged TAK1 (transforming growth factor β-activated kinase 1); assay: co-IP; HEK293T expressing one tagged protein (Myc-TAK1 or Flag-USP8), the partner endogenous; whole cell lysate in 20 mM Tris HCl pH 8, 137 mM NaCl, 1% Nonidet P-40, 2 mM EDTA; anti-Myc or anti-Flag antibody, protein A Sepharose, 4 °C; western blot
[3] = biological target: T2, Flag-tagged USP8 (ubiquitin-specific peptidase 8) (UniProt Q80U87); assay: as above
T2 sequence: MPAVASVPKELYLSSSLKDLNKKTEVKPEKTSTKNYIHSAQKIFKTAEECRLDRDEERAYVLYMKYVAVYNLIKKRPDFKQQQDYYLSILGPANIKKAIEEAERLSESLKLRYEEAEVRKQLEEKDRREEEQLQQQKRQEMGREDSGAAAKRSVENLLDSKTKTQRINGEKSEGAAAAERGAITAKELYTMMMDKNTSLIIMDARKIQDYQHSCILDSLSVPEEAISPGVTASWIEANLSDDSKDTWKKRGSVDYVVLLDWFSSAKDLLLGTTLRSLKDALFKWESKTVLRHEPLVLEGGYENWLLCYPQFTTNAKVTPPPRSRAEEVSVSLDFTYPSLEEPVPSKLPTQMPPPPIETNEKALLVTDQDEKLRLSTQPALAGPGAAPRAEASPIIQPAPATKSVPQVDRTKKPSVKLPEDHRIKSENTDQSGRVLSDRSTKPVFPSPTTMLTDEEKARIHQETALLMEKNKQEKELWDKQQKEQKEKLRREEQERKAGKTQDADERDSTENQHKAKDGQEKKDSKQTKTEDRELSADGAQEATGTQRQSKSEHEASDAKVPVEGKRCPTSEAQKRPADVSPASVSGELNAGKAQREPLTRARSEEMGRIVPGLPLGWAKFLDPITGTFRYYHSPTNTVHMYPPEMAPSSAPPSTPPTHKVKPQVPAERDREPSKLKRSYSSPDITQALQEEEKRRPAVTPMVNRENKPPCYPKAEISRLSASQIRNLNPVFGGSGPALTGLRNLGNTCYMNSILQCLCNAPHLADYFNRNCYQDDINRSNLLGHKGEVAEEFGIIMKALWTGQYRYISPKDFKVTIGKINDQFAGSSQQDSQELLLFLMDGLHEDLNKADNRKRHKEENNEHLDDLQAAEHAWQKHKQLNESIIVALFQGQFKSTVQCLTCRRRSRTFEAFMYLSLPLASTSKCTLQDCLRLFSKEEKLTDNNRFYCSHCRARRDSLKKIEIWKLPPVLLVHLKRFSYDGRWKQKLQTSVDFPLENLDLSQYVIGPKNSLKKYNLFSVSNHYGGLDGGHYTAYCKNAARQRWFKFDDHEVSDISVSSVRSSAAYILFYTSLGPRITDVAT

- binding [1]: binds
B1: Flag-tagged USP8 (ubiquitin-specific peptidase 8) (enzyme, UniProt Q80U87 1-1080)
chain: T2 sequence

- binding [2]: binds
B2: endogenous USP8 (enzyme, UniProt P40818 1-1118)
chain: MPAVASVPKELYLSSSLKDLNKKTEVKPEKISTKSYVHSALKIFKTAEECRLDRDEERAYVLYMKYVTVYNLIKKRPDFKQQQDYFHSILGPGNIKKAVEEAERLSESLKLRYEEAEVRKKLEEKDRQEEAQRLQQKRQETGREDGGTLAKGSLENVLDSKDKTQKSNGEKNEKCETKEKGAITAKELYTMMTDKNISLIIMDARRMQDYQDSCILHSLSVPEEAISPGVTASWIEAHLPDDSKDTWKKRGNVEYVVLLDWFSSAKDLQIGTTLRSLKDALFKWESKTVLRNEPLVLEGGYENWLLCYPQYTTNAKVTPPPRRQNEEVSISLDFTYPSLEESIPSKPAAQTPPASIEVDENIELISGQNERMGPLNISTPVEPVAASKSDVSPIIQPVPSIKNVPQIDRTKKPAVKLPEEHRIKSESTNHEQQSPQSGKVIPDRSTKPVVFSPTLMLTDEEKARIHAETALLMEKNKQEKELRERQQEEQKEKLRKEEQEQKAKKKQEAEENEITEKQQKAKEEMEKKESEQAKKEDKETSAKRGKEITGVKRQSKSEHETSDAKKSVEDRGKRCPTPEIQKKSTGDVPHTSVTGDSGSGKPFKIKGQPESGILRTGTFREDTDDTERNKAQREPLTRARSEEMGRIVPGLPSGWAKFLDPITGTFRYYHSPTNTVHMYPPEMAPSSAPPSTPPTHKAKPQIPAERDREPSKLKRSYSSPDITQAIQEEEKRKPTVTPTVNRENKPTCYPKAEISRLSASQIRNLNPVFGGSGPALTGLRNLGNTCYMNSILQCLCNAPHLADYFNRNCYQDDINRSNLLGHKGEVAEEFGIIMKALWTGQYRYISPKDFKITIGKINDQFAGYSQQDSQELLLFLMDGLHEDLNKADNRKRYKEENNDHLDDFKAAEHAWQKHKQLNESIIVALFQGQFKSTVQCLTCHKKSRTFEAFMYLSLPLASTSKCTLQDCLRLFSKEEKLTDNNRFYCSHCRARRDSLKKIEIWKLPPVLLVHLKRFSYDGRWKQKLQTSVDFPLENLDLSQYVIGPKNNLKKYNLFSVSNHYGGLDGGHYTAYCKNAARQRWFKFDDHEVSDISVSSVKSSAAYILFYTSLGPRVTDVAT

- binding [3]: binds
B3: endogenous TAK1 (enzyme, UniProt O43318 1-606)
chain: MSTASAASSSSSSSAGEMIEAPSQVLNFEEIDYKEIEVEEVVGRGAFGVVCKAKWRAKDVAIKQIESESERKAFIVELRQLSRVNHPNIVKLYGACLNPVCLVMEYAEGGSLYNVLHGAEPLPYYTAAHAMSWCLQCSQGVAYLHSMQPKALIHRDLKPPNLLLVAGGTVLKICDFGTACDIQTHMTNNKGSAAWMAPEVFEGSNYSEKCDVFSWGIILWEVITRRKPFDEIGGPAFRIMWAVHNGTRPPLIKNLPKPIESLMTRCWSKDPSQRPSMEEIVKIMTHLMRYFPGADEPLQYPCQYSDEGQSNSATSTGSFMDIASTNTSNKSDTNMEQVPATNDTIKRLESKLLKNQAKQQSESGRLSLGASRGSSVESLPPTSEGKRMSADMSEIEARIAATTAYSKPKRGHRKTASFGNILDVPEIVISGNGQPRRRSIQDLTVTGTEPGQVSSRSSSPSVRMITTSGPTSEKPTRSHPWTPDDSTDTNGSDNSIPMAYLTLDHQLQPLAPCPNSKESMAVFEQHCKMAQEYMKVQTEIALLLQRKQELVAELDQDEKDQQNTSRLVQEHKKLLDENKSLSTYYQQCKKQLEVIRSQQQKRQGTS
